Test results as given in publication PMC4207615.
No constants are given. Whether binding was seen depends on the method and setting. In cells and extracts the contact can be indirect. Some binding calls cover weakened binding; strength is not graded here.

Chains of the proteins cited; added tags and fusions are not shown.
UniProt Q61602: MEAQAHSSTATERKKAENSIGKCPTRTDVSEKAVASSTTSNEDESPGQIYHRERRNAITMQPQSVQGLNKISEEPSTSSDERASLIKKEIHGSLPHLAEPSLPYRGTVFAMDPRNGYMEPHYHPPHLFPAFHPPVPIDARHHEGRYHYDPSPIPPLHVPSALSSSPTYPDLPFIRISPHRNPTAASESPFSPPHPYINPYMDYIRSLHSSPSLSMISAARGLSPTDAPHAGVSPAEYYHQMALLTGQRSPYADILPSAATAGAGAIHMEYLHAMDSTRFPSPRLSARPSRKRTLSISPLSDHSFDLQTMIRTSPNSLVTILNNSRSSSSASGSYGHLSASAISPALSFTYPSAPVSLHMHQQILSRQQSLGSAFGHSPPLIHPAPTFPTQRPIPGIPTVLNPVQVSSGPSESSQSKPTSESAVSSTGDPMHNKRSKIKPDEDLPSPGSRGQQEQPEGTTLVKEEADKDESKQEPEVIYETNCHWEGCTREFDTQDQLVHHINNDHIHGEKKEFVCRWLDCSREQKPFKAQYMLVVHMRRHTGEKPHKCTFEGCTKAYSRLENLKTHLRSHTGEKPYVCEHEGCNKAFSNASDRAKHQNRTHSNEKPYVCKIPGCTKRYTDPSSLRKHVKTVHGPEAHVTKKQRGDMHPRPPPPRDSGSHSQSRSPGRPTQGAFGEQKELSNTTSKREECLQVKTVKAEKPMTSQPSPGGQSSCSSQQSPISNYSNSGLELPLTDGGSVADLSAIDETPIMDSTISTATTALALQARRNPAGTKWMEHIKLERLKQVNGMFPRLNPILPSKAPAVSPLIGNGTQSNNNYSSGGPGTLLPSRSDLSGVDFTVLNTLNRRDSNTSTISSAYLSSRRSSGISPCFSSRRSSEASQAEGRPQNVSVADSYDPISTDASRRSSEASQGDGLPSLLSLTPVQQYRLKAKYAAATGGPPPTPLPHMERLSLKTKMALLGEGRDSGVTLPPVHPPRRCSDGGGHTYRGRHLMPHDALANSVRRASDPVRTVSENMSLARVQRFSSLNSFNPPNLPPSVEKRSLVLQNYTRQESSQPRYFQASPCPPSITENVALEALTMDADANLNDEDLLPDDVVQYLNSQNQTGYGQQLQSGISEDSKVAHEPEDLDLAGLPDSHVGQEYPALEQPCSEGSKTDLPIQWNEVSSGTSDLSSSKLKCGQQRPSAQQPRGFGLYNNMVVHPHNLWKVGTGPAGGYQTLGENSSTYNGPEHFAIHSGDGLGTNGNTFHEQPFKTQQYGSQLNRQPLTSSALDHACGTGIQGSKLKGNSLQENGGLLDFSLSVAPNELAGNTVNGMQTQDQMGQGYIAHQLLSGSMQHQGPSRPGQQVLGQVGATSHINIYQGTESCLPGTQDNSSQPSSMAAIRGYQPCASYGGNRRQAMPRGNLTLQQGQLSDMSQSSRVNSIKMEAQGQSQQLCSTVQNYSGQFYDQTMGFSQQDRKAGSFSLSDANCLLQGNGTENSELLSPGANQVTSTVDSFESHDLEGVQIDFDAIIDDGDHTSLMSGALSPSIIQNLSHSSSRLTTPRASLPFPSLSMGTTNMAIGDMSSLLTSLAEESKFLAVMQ
UniProt Q0VGT2: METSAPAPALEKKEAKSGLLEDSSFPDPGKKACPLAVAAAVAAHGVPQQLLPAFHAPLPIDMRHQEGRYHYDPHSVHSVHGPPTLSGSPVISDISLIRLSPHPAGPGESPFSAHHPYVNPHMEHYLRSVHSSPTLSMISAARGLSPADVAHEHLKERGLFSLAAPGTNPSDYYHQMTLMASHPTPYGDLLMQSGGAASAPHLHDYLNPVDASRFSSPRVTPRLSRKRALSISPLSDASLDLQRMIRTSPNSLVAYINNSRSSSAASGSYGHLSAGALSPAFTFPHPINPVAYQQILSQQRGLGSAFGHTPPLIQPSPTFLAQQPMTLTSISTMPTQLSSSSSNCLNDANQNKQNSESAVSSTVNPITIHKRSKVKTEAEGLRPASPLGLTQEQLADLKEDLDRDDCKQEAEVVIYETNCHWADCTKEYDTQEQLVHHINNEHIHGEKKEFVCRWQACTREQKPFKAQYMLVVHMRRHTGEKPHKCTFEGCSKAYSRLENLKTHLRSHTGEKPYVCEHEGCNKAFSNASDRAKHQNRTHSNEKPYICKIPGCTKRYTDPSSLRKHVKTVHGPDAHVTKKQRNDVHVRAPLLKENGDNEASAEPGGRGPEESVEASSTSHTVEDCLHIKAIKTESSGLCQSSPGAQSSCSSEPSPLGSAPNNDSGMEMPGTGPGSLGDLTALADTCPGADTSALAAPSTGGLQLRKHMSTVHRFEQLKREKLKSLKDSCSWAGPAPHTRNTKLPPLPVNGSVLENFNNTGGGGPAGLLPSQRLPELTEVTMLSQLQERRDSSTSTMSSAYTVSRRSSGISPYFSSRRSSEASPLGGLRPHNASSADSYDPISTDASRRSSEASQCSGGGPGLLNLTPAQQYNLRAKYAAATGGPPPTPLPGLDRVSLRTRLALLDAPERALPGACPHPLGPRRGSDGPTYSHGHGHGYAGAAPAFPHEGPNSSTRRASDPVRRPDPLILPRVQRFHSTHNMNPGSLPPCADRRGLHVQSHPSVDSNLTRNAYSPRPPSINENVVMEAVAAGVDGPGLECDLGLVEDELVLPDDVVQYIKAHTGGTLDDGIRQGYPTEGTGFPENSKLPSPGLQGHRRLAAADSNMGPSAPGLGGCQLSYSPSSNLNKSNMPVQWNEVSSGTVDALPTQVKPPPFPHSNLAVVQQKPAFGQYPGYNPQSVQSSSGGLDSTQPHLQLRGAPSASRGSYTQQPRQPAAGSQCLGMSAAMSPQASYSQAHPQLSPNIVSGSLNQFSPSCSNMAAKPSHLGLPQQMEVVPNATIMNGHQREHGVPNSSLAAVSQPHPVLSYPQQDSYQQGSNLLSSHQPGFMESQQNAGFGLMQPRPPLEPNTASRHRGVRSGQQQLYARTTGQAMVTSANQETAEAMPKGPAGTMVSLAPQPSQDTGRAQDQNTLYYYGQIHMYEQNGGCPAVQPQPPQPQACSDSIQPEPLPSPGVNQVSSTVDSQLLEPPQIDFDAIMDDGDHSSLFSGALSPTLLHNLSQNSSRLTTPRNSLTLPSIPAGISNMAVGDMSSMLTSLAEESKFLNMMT

Target: T1, Sufu (mouse (endogenous in MEFs)) (UniProt Q9Z0P7)
T1 sequence: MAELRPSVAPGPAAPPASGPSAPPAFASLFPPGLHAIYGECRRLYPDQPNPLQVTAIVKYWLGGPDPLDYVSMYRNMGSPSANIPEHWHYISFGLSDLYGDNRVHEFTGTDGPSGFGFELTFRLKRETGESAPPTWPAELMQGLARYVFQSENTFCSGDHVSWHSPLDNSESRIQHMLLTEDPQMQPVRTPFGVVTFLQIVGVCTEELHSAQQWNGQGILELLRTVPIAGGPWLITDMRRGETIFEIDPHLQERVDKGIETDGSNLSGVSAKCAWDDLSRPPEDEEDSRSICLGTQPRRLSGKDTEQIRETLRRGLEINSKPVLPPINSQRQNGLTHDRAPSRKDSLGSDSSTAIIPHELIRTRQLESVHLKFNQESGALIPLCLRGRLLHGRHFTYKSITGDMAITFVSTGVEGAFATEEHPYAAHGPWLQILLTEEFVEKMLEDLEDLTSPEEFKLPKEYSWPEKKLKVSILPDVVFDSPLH
Experiment: co-IP; endogenous proteins of wild-type and hop/hop MEFs treated 5 h with SAG (400 nM) and bortezomib (2 uM) or DMSO (0.02%); lysis in 50 mM Tris pH 7.5, 300 mM NaCl, 2% NP-40, 0.25% deoxycholate; precipitated with anti-Sufu antibody overnight at 4°C and Dynabeads Protein G; blotted for Gli3, Gli2, Sufu

| Substance | binding |
| --- | --- |
| full-length Gli3 protein (Gli3-F) (from UniProt Q61602 1-1583) | binds |
| full-length Gli2 (Gli2-F) (from UniProt Q0VGT2 1-1544) | binds |
